Consider five compounds from PMC10059057, “Antileishmanial and Antiplasmodial Activities of Secondary Metabolites from the Root of Antrocaryon klaineanum Pierre (Anacardiaceae)” (Molecules, 2023).

The test system of data set [1] is P. falciparum chloroquine-resistant (PfDd2). As to the kind of experiment: Antiplasmodial SYBR green I based fluorescence assay, chloroquine-resistant strain. Format: cell-based, Plasmodium falciparum. The following applies: for RI (resistance index): ratio IC50 on Dd2 / IC50 on 3D7. The source says:
(§1) The cryopreserved chloroquine-sensitive (Pf3D7-(MRA-102)), the multi-resistant (PfDd2) of Plasmodium falciparum, and the promastigote form of Leishmania donovani strains were obtained from BEI Resources (https://www.beiresources.org/ (accessed on 16 February 2019)) and are routinely cultured at the Antimicrobial and Biocontrol Agents Unit, University of Yaoundé I.
Plasmodium falciparum strains were maintained in 60 mm sterile petri dishes containing complete RPMI 1640 medium [RPMI 1640 (Sigma Aldrich) supplemented with 0.2% sodium bicarbonate (Sigma Aldrich), 0.5% Albumax II (Gibco), 1% hypoxanthine 100X (Gibco, Billings, MT, USA), 25 mM HEPES, and 0.04% gentamicin (Sigma Aldrich)] with fresh O^+ erythrocytes of healthy human volunteers suspended at 4% haematocrit (v/v) and incubated at 37 °C in a 5% CO2 humidified atmosphere. The medium was replaced daily with fresh complete medium to propagate the culture. Ten percent (10%) Giemsa-stained thin blood smears were examined microscopically under immersion oil to monitor cell-cycle transition and parasitaemia.
(§2) A stock solution was prepared at 100 mg/mL for each extract and fraction and at 50 mg/mL for isolated compound in 100% DMSO (Sigma–Aldrich, Munich, Germany). Master plates were then prepared by mixing 2 μL of each stock solution with 198 μL of fresh incomplete RPMI 1 640 culture medium to yield a concentration of 1 mg/mL for extract and fraction and of 0.5 mg/mL (1% DMSO) followed by a 5-fold serial dilution. Extracts and fractions were tested at concentrations ranging from 0.16 to 100 μg/mL, and isolated compounds at concentrations ranging from 0.08 to 50 μg/mL.
The use of mixed-stage cultures can enable the test molecules to interact with all the three stages (ring, trophozoite, and schizont) found during a 48-h life cycle of P. falciparum in culture. […]
(§3) Drug sensitivity assay was carried out in 96-well microtitration plates using the SYBR green I based fluorescence assay (Smilkstein et al., 2004). […]
(§4) The 96 wells flat-bottom assay plates with sorbitol-synchronized ring stage parasites (haematocrit: 1%, parasitaemia: 2%, 90 μL) were incubated in the presence of 10 µL of pre-diluted extracts, fractions, isolated compounds, and reference drugs [Chloroquine and Artemisinin (Sigma–Aldrich, Munich, Germany)] at different triplicate concentrations (100 µg/mL–0.16 µg/mL for extract/fractions and 50 µg/mL–0.08 µg/mL for compounds). […] Fluorescence was measured using the microplate reader Infinite M200 (Tecan) at an excitation and emission wavelength of 485 and 538 nm, respectively. […]
The resistance index (RI) was determined as the ratio of the IC50 of the samples on the multi-resistant strain Dd2 and the IC50 on the chloroquine-sensitive strain 3D7 as reported by Douanla et al..

In data set [2] the test system is P. falciparum chloroquine-sensitive (Pf3D7). As to the kind of experiment: Antiplasmodial SYBR green I based fluorescence assay, chloroquine-sensitive strain. The format is cell-based, Plasmodium falciparum. The conditions noted are these: SI = CC50 (Raw cells)/IC50 (Pf3D7). The method, then: The cryopreserved chloroquine-sensitive (Pf3D7-(MRA-102)), the multi-resistant (PfDd2) of Plasmodium falciparum, and the promastigote form of Leishmania donovani strains were obtained from BEI Resources (https://www.beiresources.org/ (accessed on 16 February 2019)) and are routinely cultured at the Antimicrobial and Biocontrol Agents Unit, University of Yaoundé I. […]
as §3, §4

Data set [3] relates to L. donovani promastigotes 1S (MHOM/SD/62/1S). The experiment in a line: Antileishmanial resazurin fluorimetric assay on promastigotes. The format is cell-based, Leishmania donovani. The following applies: SI = CC50 (Raw cells)/IC50 (L. donovani). The method, then:
as §1
Leishmania donovani promastiogtes were cultured in Medium 199 (Sigma, Darmstadt, Germany) supplemented with 10% Heat-Inactivated fetal Bovine Serum (HIFBS) (Sigma, Darmstadt, Germany) and 100 IU/mL penicillin/streptomycin. The culture was maintained in 75 cm^2 cell culture flask at 28 °C and sub-cultured every 72 h.
as §2
The antileishmanial activity of crude extracts, derived fractions, and isolated compounds against cultured L. donovani promastigotes was evaluated using the resazurin fluorimetric assay as described by Siqueira-Neto et al. (2010). […] After an additional incubation for 44 h, plates were then read on a Magelan Infinite M200 fluorescence plate reader (Tecan, Männedorf, Switzerland) at excitation and emission wavelengths of 530 and 590 nm, respectively. For each sample, growth inhibition percentages were calculated with Microsoft Excel Software; then, from the nonlinear regression fit, concentration–response curves were generated to deduce the median inhibitory concentration (IC50) using the GraphPad Prism 8.0 software.
In general terms: Alamar Blue is a resazurin reagent that responds to reducing activity.

A value given as a limit tells only on which side of the number the result lay.

For the compound `CCCCCCCC=CCCCCCCCCCCCCCC(O)C(O)C(COC1OC(CO)C(O)C(O)C1O)NC(=O)C(O)CCCCCCCCCCCCCC` [Antroklaicerebroside (1), (2S,3S,4R,2′R,18E)N-((-3,4-dihydroxy-β-D-gluco-pyranosyl)oxy)hexacos-18-en-2-yl)-2-hydroxyhexadecanamide], in data set [1], the “RI (resistance index)” value is reported as more than 1.19.

In data set [2], `O=c1ccc2cc(O)c(O)cc2o1` [Esculetin (2), 6,7-dihydroxycoumarin] gave an SI_Pf3D7 of more than 10.97. Besides, in data set [1] (SI = CC50 (Raw cells)/IC50 (PfDd2)), the SI_PfDd2 is recorded as more than 53.76. Further, the “RI (resistance index)” value in data set [1] came out at 0.2.

For `COc1cc2ccc(=O)oc2cc1O` [Scopoletin (3), 7-hydroxy-6-methoxycoumarin], in data set [3], the “L. donovani Promastigote SI” value is reported as more than 78.13.

Consider `CC[C@H](/C=C/[C@@H](C)[C@H]1CC[C@H]2[C@@H]3CC=C4C[C@@H](O)CC[C@]4(C)[C@H]3CC[C@]12C)C(C)C` [Stigmasterol (6), stigmasterol], for which the “L. donovani Promastigote SI” value in data set [3] is listed as more than 54.70.

Compound `CC[C@H](CC[C@@H](C)[C@H]1CC[C@H]2[C@@H]3CC=C4C[C@@H](O)CC[C@]4(C)[C@H]3CC[C@]12C)C(C)C` [β-sitosterol (5), β-sitosterol] returned an SI_Pf3D7 in data set [2] of more than 11.04. In addition, the “RI (resistance index)” value in data set [1] is given as more than 1.1. Besides, in data set [3], the “L. donovani Promastigote SI” value is on record as more than 89.93.
